Test results from publication PMC12655669.
These are yes or no findings as the source states them, for the method shown. In cells and extracts the contact can be indirect. Some entries that bind do so weakly or less than the wild type.

Target: T1, triggering receptor expressed on myeloid cells 2 (Trem2) (mouse (endogenous in murine macrophages)) (UniProt Q99NH8)
T1 sequence: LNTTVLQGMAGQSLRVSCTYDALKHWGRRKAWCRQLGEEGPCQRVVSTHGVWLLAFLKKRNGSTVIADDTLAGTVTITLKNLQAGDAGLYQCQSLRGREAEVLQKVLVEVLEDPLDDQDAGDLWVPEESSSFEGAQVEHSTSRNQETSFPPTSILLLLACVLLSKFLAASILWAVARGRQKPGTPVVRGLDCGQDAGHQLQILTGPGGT
Assay: co-IP; macrophage cell lysates in RIPA buffer with PMSF; 2 ug anti-Trem2 or control IgG antibody, 4 °C, 2 h; Protein A/G Plus-Agarose overnight at 4 °C; washed with lysis buffer; immunoblot for MICAL1 and Trem2

B1: MICAL1 (enzyme, UniProt Q8VDP3 1-1048)
chain: MASPASTNPAHDHFETFVQAQLCQDVLSSFQGLCRALGVESGGGLSQYHKIKAQLNYWSAKSLWAKLDKRASQPVYQQGQACTNTKCLVVGAGPCGLRAAVELALLGARVVLVEKRIKFSRHNVLHLWPFTIHDLRALGAKKFYGRFCTGTLDHISIRQLQLLLLKVALLLGVEIHWGVKFTGLQPPPRKGSGWRAQLQPNPPAQLASYEFDVLISAAGGKFVPEGFTIREMRGKLAIGITANFVNGRTVEETQVPEISGVARIYNQKFFQSLLKATGIDLENIVYYKDETHYFVMTAKKQCLLRLGVLRQDLSETDQLLGKANVVPEALQRFARAAADFATHGKLGKLEFAQDARGRPDVAAFDFTSMMRAESSARVQEKHGARLLLGLVGDCLVEPFWPLGTGVARGFLAAFDAAWMVKRWAEGAGPLEVLAERESLYQLLSQTSPENMHRNVAQYGLDPATRYPNLNLRAVTPNQVQDLYDMMDKEHAQRKSDEPDSRKTTTGSAGTEELLHWCQEQTAGFPGVHVTDFSSSWADGLALCALVHHLQPGLLEPSELQGMGALEATTWALRVAEHELGITPVLSAQAVMAGSDPLGLIAYLSHFHSAFKNTSHSSGLVSQPSGTPSAILFLGKLQRSLQRTRAKVDEETPSTEEPPVSEPSMSPNTPELSEHQEAGAEELCELCGKHLYILERFCVDGHFFHRSCFCCHTCEATLWPGGYGQHPGDGHFYCLQHLPQEDQKEADNNGSLESQELPTPGDSNMQPDPSSPPVTRVSPVPSPSQPARRLIRLSSLERLRLSSLNIIPDSGAEPPPKPPRSCSDLARESLKSSFVGWGVPVQAPQVPEAIEKGDDEEEEEEEEEEEEEPLPPLEPELEQTLLTLAKNPGAMTKYPTWRRTLMRRAKEEEMKRFCKAQAIQRRLNEIEATMRELEAEGTKLELALRKESSSPEQQKKLWLDQLLRLIQKKNSLVTEEAELMITVQELDLEEKQRQLDHELRGYMNREETMKTEADLQSENQVLRKLLEVVNQRDALIQFQEERRLREMPA
In the case of B1, the binding is reported as “binds”.
